Source: PubChem BioAssay AID1259308 (NCATS, 2017)
Here is one part, drawn at random, of about 59,000 reagents. In the full data, about 1,510 (2.6%) were called active. 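Calls use total luciferase alone and ignore viability, so some active siRNAs may act by altering cell number.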 The numbers tell different reagents against one gene apart.

- Aim: 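Candidate targets for better recombinant protein yield in mammalian cells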 (primary screen)
- Cell system: human HEK293 embryonic kidney cells stably expressing firefly luciferase (HEK-CMV-Luc2-Hygro)
- Knock-down reagent: single siRNA against human genes, 0.8 pmol siRNA per well
- Time to read-out: 72 h
- Measured: 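Luciferase light (ONE-Glo) measured on one replicate plate set and viability (CellTiter-Glo) on the other, scaled to a negative control siRNA, with robust z-scores and luciferase per cell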
- Scale: total luciferase, z-score and total luciferase, % of control: higher = more reporter protein produced; luciferase per cell, z-score: higher = more reporter output per viable cell; viable cells, % of control: higher = more viable cells
- Hit rule: 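An siRNA counts as active if its total luciferase robust z-score exceeds 3; genes with two or more such siRNAs out of three were retested with fresh siRNAs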
- Meaning of the calls: active = raised luciferase; inactive = no rise

The opening 2 entries, ahead of the listing:
"total luciferase, z-score","total luciferase, % of control","luciferase per cell, z-score","viable cells, % of control",activity call,gene knocked down,reagent no.
-0.0108,81.7,-0.608,107,inactive,DYNLT2,1
0.777,97.3,0.63,92.1,inactive,DYNLT2,2

The list itself, from the first entry:
"total luciferase, z-score","total luciferase, % of control","luciferase per cell, z-score","viable cells, % of control",activity call,gene knocked down,reagent no.
-0.0108,81.7,-0.608,107,inactive,DYNLT2,1
0.777,97.3,0.63,92.1,inactive,DYNLT2,2
-0.201,77.9,-0.769,107,inactive,DYNLT2,3
-0.23,77.3,-0.253,92.3,inactive,LAMB3,1
-0.566,70.6,-0.785,97.1,inactive,LAMB3,2
-0.818,65.6,-0.886,92.6,inactive,LAMB3,3
1.2,106,0.714,98,inactive,SULT1C4,1
-1.25,57,-1.15,86.2,inactive,SULT1C4,2
1.77,117,1.93,78.8,inactive,SULT1C4,3
1.42,110,1.55,82,inactive,OR5P3,1
-0.331,75.3,0.996,64.7,inactive,OR5P3,2
-1.63,49.4,-1.75,87.7,inactive,OR5P3,3
-0.244,77,-0.762,105,inactive,HNRNPD,1
0.0975,83.8,-0.585,109,inactive,HNRNPD,2
1.44,111,0.256,115,inactive,HNRNPD,3
-0.712,67.7,-0.762,92.5,inactive,CNPY3,1
-1.06,60.8,-0.884,85.8,inactive,CNPY3,2
1.18,105,1,90.4,inactive,CNPY3,3
-0.778,66.4,-0.382,82.1,inactive,UBE2E1,1
-0.413,73.7,-0.739,100,inactive,UBE2E1,2
-1.47,52.6,-2.11,102,inactive,UBE2E1,3
0.075,83.4,-0.00414,93.3,inactive,RDX,1
0.0249,82.4,-0.282,99.2,inactive,RDX,2
0.519,92.2,-0.222,109,inactive,RDX,3
